Our source for the binding values is publication doi:10.1101/720482.

By UniProt entry, the sequences of proteins in these tests, tags left out. Where a name states a change or a piece, a line headed by the entry shows the natural chain unless it says otherwise. Residues count along the entry.
UniProt Q9M306: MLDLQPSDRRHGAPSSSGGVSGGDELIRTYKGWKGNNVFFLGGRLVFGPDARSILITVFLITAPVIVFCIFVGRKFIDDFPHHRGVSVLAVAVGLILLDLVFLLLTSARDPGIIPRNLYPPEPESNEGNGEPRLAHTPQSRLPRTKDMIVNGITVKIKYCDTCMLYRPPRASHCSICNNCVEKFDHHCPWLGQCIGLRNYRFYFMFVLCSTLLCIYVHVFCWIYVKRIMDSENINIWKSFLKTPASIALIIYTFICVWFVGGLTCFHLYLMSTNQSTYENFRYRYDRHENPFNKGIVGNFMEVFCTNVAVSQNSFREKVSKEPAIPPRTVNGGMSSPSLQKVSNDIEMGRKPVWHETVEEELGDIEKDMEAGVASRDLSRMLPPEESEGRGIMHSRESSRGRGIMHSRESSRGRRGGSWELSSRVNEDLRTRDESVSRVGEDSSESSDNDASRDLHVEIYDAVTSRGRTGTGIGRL
UniProt Q8VYS8: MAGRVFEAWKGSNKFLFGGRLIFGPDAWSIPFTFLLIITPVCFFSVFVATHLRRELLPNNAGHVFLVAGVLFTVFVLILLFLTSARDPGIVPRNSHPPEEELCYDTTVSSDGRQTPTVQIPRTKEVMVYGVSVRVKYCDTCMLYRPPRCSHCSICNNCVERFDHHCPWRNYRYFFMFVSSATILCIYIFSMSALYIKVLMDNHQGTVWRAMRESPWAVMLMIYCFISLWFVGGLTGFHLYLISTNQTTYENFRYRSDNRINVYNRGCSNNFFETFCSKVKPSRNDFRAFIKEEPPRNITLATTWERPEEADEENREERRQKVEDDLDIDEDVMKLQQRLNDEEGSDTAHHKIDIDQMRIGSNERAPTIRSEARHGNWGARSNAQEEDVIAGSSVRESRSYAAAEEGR
UniProt Q9FL28, residues 24-1173: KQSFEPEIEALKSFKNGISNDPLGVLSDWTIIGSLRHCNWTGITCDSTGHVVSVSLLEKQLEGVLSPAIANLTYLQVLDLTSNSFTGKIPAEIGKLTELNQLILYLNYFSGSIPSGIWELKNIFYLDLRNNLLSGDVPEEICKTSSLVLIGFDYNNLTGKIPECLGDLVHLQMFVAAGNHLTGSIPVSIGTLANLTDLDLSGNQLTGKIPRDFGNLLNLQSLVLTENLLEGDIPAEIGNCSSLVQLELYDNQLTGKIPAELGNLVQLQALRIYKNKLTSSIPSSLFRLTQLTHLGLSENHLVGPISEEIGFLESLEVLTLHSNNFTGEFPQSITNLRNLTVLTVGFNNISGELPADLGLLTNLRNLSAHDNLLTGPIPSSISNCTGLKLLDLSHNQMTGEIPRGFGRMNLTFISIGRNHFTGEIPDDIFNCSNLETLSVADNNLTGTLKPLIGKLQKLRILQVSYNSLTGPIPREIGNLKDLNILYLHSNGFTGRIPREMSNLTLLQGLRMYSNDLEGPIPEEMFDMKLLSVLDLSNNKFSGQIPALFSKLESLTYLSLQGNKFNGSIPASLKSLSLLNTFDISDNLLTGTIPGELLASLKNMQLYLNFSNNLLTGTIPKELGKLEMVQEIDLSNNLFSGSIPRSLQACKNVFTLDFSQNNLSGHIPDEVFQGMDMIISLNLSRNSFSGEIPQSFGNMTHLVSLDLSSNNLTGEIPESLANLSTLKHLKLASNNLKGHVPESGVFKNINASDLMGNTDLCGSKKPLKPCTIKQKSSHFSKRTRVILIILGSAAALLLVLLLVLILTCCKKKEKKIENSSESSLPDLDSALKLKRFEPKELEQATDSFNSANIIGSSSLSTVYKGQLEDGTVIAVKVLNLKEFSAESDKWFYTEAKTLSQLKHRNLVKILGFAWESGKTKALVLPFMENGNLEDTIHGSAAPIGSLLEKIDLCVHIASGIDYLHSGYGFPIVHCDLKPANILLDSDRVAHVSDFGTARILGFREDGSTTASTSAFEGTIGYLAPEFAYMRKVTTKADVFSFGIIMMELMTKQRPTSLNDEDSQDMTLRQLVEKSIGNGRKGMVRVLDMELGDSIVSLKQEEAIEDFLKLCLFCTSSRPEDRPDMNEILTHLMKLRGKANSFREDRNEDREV

Changes are numbered by the printed parent chain. Where two headings read alike, the source gives them in different places. No constants are given. Whether binding was seen depends on the method and setting. Binding seen in cells or lysates may run through a third protein. Binding can be weak; no strength is given. For some of these results: Where a sequence is shown, tags or fusion partners need not be part of it.

In assay [1] the target is T1, P2K1-HA (Arabidopsis thaliana) (UniProt Q9LSR8).
T1 sequence: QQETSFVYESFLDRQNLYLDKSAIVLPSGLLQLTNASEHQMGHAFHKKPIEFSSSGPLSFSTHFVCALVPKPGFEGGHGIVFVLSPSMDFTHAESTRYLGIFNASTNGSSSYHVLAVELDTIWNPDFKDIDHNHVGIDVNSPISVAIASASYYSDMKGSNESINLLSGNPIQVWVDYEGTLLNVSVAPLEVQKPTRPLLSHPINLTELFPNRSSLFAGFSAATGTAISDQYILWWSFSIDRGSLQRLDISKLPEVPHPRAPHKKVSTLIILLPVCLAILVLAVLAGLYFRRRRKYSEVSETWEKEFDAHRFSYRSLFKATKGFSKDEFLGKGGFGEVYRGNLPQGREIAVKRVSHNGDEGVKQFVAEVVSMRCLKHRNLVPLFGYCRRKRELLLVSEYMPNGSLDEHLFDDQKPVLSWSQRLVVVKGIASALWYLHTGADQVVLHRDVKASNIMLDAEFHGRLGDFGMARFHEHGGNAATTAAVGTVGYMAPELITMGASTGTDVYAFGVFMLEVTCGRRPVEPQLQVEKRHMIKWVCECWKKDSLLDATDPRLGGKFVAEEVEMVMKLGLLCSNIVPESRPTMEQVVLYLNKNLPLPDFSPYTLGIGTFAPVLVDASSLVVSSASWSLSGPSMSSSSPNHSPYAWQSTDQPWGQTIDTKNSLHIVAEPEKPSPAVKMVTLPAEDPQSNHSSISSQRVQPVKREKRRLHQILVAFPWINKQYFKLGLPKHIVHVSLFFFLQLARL
As to the kind of experiment: co-IP.

Assay [2] addresses T1, P2K1-HA (Arabidopsis thaliana). The assay can be described thus: co-IP. This is another data set of the same source.
Assay [3] addresses PAT5-HA (NP::ATPAT5/Atpat5) (Arabidopsis thaliana) (UniProt Q9M306). The assay can be described thus: co-IP.
Assay [4] addresses PAT9-HA (NP::ATPAT9/Atpat9) (Arabidopsis thaliana) (UniProt Q8VYS8). The assay can be described thus: co-IP.
In assay [5] the target is PAT5-HA (NP::ATPAT5/Atpat5) (Arabidopsis thaliana) (UniProt Q9M306). The assay can be described thus: co-IP. The source holds these as a separate data set.
The target in assay [6] is PAT9-HA (NP::ATPAT9/Atpat9) (Arabidopsis thaliana) (UniProt Q8VYS8). As to the kind of experiment: co-IP. This is another data set of the same source.
Assay [7] addresses T2, CERK1-YFP^N (Arabidopsis thaliana) (UniProt A8R7E6).
T2 sequence: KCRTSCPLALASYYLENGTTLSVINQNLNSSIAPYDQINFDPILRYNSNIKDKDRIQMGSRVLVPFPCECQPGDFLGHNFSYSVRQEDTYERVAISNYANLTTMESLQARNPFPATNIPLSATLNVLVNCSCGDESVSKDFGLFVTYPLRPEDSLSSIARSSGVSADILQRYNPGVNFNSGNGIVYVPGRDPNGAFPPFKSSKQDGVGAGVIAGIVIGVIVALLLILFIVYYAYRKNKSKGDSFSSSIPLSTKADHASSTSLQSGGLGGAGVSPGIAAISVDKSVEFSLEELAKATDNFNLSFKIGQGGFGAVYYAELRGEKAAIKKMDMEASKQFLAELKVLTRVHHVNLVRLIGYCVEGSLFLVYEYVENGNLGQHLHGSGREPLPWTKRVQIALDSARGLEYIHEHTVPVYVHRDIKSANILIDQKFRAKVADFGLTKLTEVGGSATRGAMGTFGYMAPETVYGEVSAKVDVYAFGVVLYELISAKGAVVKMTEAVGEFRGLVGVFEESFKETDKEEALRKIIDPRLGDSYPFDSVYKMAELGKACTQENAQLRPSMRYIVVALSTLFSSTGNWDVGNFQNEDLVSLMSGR
As to the kind of experiment: split reporter.

In assay [8] the target is FLS2-YFP^N (Arabidopsis thaliana) (UniProt Q9FL28). As to the kind of experiment: split reporter.
The target in assay [9] is T3, P2K1-YFP^N (Arabidopsis thaliana) (UniProt Q9LSR8).
T3 sequence: T1 sequence
As to the kind of experiment: split reporter.

In assay [10] the target is PAT9-YFP^C (Arabidopsis thaliana) (UniProt Q8VYS8). As to the kind of experiment: split reporter.
In assay [11] the target is T4, FLOT1 (split-luciferase fusion, LCI) (Arabidopsis thaliana) (UniProt Q501E6).
T4 sequence: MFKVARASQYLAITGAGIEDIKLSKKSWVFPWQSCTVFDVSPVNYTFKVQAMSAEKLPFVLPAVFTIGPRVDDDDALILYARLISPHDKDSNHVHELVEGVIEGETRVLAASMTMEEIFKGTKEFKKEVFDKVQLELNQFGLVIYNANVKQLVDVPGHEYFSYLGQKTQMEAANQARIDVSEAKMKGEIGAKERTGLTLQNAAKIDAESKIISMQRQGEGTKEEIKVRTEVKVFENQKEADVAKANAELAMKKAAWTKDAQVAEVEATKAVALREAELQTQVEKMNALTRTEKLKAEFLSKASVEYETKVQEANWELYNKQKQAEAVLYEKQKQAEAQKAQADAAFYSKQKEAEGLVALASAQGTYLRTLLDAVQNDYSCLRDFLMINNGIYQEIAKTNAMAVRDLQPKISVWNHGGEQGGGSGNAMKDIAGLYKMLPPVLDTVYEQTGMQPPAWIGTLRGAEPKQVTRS
The assay can be described thus: split reporter.

In assay [12] the target is FLS2 (split-luciferase fusion, LCI) (Arabidopsis thaliana) (UniProt Q9FL28). The assay can be described thus: split reporter.
Assay [13] concerns the target T5, P2K1 (split-luciferase fusion, LCI) (Arabidopsis thaliana) (UniProt Q9LSR8).
T5 sequence: T1 sequence
The assay can be described thus: split reporter.

Assay [14] has as its target PAT9 (split-luciferase fusion, LCI) (Arabidopsis thaliana) (UniProt Q8VYS8). The assay can be described thus: split reporter.
Assay [15] has as its target T6, kinase dead version CERK1 (D441A) (split-luciferase fusion, LCI) (Arabidopsis thaliana) (UniProt A8R7E6).
T6 sequence: T2 sequence with D418A
As to the kind of experiment: split reporter.

The target of assay [16] is PAT5-HA (NP::ATPAT5/Atpat5) (Arabidopsis thaliana) (UniProt Q9M306). As to the kind of experiment: co-IP. This is another data set of the same source.
For assay [17], the target named is PAT9-HA (NP::ATPAT9/Atpat9) (Arabidopsis thaliana) (UniProt Q8VYS8). As to the kind of experiment: co-IP. This is another data set of the same source.

Regarding PAT9-Myc (from UniProt Q8VYS8) (enzyme), the binding entry in assay [1] is recorded as “binds weakly”; in assay [2], “binds”.

Turning to “endogenous FLS2 (from UniProt Q9FL28 24-1173) (receptor)”, the binding entry in assay [3] is “binds weakly”; in assay [4], “binds weakly”; in assay [5] it was “binds”; in assay [6] it was “binds”.

On to PAT5-Myc (from UniProt Q9M306) (enzyme), for which the results for the binding entry in assay [1] and in [2] were “binds weakly” and “binds”, respectively.

As to “PAT9-YFP^C (from UniProt Q8VYS8) (enzyme)”, the binding result in assay [7], in assay [8] and in assay [9] was “binds” throughout.

“PAT5-YFP^C (from UniProt Q9M306) (enzyme)”: the binding entry in assay [7], in [8], in assay [9] and in [10] was “binds” in each case.

Turning to “PAT5 (split-luciferase fusion, LCI) (from UniProt Q9M306) (enzyme)”, the binding result in [11], in assay [12], in assay [13], in assay [14] and in assay [15] was “binds” each time.

Turning to “PAT9 (split-luciferase fusion, LCI) (from UniProt Q8VYS8) (enzyme)”, the binding result in [11], in [12], in [13] and in [15] was “binds” throughout.

B1: endogenous CERK1 (receptor, UniProt A8R7E6 24-617)
chain: T2 sequence
For the molecule B1, the binding result is “binds weakly” in [3], “binds weakly” in assay [4], “binds” in [16] and “binds” in assay [17].
